We go through one substance from PMC5006984.

In this test the target is T1, human MICB (human) (UniProt Q29980).
T1 sequence: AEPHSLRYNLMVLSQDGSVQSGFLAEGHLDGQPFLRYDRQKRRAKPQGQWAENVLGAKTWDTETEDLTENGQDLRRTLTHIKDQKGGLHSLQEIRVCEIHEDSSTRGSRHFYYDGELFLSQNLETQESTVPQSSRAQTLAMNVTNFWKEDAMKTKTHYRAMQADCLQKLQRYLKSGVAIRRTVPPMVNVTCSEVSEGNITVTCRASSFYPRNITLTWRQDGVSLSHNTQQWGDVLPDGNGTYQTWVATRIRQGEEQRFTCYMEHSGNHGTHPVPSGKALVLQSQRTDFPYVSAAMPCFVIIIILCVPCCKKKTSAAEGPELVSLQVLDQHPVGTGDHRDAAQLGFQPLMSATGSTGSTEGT
The test can be described thus: affinity purification with mass spectrometry; preparative anti-MICB mAb immunoprecipitation from RhCMV-infected U373-MICB cells lysed at 48 hpi; SDS-PAGE, Coomassie staining; band excised, trypsin, LC-MS/MS.

No constants are given. Whether binding was seen depends on the method and setting. Binding seen in cells or lysates may run through a third protein. Here binding means that the protein was enriched with, or labelled near, the bait; the list need not be complete.

“RhCMV Rh159 (expressed from RhCMV 68-1 in infected cells)”: the binding result was “binds”.
